Assay results taken from patent publication US8354430B2, “Monohydrochloride salt of 1-[3-[3-(4-chlorophenyl) propoxy]propyl]-piperidine” (priority 2005, dated 2013).
At least one structure is not confirmed: it was looked up by name or label, or the drawing left a doubt.

Test system: volunteers
Test: Phase I study of subjective satiety, interaction with olanzapine
Assay type: in vivo, human
Settings: olanzapine 5 mg
Experimental: A single-center, open-label, placebo-controlled phase I study was performed to evaluate the subjective satiety in 6 volunteers. The volunteers enrolled in the study underwent five single day administration periods.

Cc1cc2c(s1)Nc1ccccc1N=C2N1CCN(C)CC1 [olanzapine, reference compound]
subjective satiety compared to placebo: significantly decreased
